No constants are given. Whether binding was seen depends on the method and setting. Binding seen in cells or lysates may run through a third protein. These calls come from enrichment with a bait or labelling near it, and not all partners need be listed.
Experiments:
[1] = target: T1, Htr18 (Halobacterium salinarum R1 (DSM 671), endogenous) (UniProt B0R474); assay: affinity purification with mass spectrometry; one-step and two-step bait fishing taken together (final data set; both methods applied to all baits); the place does not tell which of the two gave the result
T1 sequence: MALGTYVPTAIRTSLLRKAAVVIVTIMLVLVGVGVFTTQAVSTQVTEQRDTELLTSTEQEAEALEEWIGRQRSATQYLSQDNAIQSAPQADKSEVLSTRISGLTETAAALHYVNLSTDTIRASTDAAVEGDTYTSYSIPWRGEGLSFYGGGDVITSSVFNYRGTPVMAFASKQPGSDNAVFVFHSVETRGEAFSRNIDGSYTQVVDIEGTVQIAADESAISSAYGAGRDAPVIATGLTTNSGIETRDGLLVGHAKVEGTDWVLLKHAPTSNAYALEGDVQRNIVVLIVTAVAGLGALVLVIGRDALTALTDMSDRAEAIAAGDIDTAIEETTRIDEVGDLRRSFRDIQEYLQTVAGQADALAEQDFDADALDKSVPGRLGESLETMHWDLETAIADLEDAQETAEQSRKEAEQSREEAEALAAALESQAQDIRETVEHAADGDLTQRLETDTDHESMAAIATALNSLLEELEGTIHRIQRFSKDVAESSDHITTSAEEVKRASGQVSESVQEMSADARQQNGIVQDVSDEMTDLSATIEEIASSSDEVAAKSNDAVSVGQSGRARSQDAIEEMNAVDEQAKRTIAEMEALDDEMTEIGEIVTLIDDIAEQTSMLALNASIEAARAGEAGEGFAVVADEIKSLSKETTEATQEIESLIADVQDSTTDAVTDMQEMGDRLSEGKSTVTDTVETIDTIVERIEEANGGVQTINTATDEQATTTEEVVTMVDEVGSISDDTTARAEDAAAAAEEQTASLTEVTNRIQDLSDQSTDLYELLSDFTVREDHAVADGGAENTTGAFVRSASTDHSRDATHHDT

[2] = target: T2, CheB (Halobacterium salinarum R1 (DSM 671)) (UniProt B0R4K0); assay: as above
T2 sequence: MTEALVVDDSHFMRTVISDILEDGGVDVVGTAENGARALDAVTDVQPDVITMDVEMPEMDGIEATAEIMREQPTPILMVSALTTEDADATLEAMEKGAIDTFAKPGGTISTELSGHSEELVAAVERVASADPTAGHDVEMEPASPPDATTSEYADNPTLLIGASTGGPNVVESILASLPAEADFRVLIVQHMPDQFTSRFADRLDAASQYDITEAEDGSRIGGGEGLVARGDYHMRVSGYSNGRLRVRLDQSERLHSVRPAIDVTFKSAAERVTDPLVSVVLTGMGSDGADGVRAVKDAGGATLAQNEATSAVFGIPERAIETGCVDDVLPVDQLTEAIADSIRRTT

[3] = target: T3, CheF1 (Halobacterium salinarum R1 (DSM 671)) (UniProt B0R4J3); assay: as above
T3 sequence: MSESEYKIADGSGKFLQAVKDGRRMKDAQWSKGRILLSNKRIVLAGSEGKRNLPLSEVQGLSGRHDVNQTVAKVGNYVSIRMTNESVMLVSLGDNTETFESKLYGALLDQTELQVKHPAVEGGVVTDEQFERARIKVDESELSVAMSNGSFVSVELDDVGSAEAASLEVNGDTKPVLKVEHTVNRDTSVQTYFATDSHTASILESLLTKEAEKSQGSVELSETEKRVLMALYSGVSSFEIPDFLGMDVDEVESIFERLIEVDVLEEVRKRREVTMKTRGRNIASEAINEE

[4] = target: T4, CheF2 (Halobacterium salinarum R1 (DSM 671)) (UniProt B0R4J4); assay: as above
T4 sequence: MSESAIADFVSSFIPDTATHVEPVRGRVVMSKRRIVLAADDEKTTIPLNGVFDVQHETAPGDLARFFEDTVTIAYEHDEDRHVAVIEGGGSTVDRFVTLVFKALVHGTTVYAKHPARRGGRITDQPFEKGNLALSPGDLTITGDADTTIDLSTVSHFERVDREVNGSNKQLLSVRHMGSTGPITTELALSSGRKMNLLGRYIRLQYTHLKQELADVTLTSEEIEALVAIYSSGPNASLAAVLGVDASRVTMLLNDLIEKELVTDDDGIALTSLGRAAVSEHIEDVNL

[5] = target: T5, OE2401F (Halobacterium salinarum R1 (DSM 671)) (UniProt B0R4J2); assay: as above
T5 sequence: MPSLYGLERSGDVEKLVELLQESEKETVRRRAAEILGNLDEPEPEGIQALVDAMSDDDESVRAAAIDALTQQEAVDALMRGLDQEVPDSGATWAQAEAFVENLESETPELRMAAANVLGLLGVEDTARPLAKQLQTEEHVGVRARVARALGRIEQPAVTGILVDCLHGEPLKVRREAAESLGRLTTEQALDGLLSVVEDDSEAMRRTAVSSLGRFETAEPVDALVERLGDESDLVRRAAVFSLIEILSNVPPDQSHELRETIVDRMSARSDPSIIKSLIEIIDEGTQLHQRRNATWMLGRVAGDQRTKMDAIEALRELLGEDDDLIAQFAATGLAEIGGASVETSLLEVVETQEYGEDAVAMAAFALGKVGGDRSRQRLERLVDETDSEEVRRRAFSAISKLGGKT

[6] = target: T6, CheW1 (Halobacterium salinarum R1 (DSM 671)) (UniProt Q9HQW5); assay: as above
T6 sequence: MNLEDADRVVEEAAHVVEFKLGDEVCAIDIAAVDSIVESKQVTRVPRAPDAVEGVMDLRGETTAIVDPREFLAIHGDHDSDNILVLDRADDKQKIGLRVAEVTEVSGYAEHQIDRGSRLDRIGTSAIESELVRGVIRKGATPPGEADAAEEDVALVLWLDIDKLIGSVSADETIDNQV

[7] = target: OE4643R (Halobacterium salinarum R1 (DSM 671)); assay: as above
[8] = target: PurNH (OE1620R) (Halobacterium salinarum R1 (DSM 671)); assay: as above
[9] = target: T6, CheW1 (Halobacterium salinarum R1 (DSM 671)); assay: affinity purification with mass spectrometry; comparative two-step bait fishing: CheW1 on one cellulose column with light (12C) lysate, CheW2 on a second column with heavy (13C) lysate, the second CheW as control instead of plain CBD; only the target purified

Measured: binding

OE2196F
binds: [1]

CheD (Halobacterium salinarum R1 (DSM 671))
binds: [2] | [3] | [4] | [5]

B1: CheA (enzyme, UniProt B0R4J9 1-668)
chain: MDDYLEAFVREGEEHVTSLNNALLELESDPGNEEAMDEIFRTAHTLKGNFGAMGFEDASDLAHAVEDLLDEMRQGNLEVTSDRMDRIFEGIDGIEACLDEIQATGDVDRDVTGTIESVRAVLDEVDGDGGSGTTTSSGDAGSPAGDGDVDATRVVDADTIDAAEDPVYHIHIDMGDSQMKGVDGMFVLEEATEAFDLLGAEPSPDAINDGEYGDGFELVVATPSDEVSDTVAAFPKLSDATVTAVGDDEHAPDADSGTEADASADDDADDAGTTADSGSSSGGSSAIDNTDTEIQSVRVDVDQLDELHGLVEQLVTTRIKLRRGMEESDREVLDELDELDKITSSLQDTVMDMRLVPMKKIVGKFPRLVRDLAREQDKDIDFVVEGDDVELDRTILTEISDPLMHLLRNAVDHGIEKPAVREDNGKDREGTITLSAERDRDHVLIQVRDDGAGIDHDTMREKAIEKGVKTREEVQDMPDDDVEDLVFHPGFSTNDEVTDVSGRGVGMDVVRDTVTRLDGSVSVDSTPGEGTTFTMTLPVTVAIVKVLFVESGGEEYGIPIKTVDEISRMKSVKSVDGEEVITYDETVYPLVRLGDALNVPDETRNGDGMLVRIRDSERQVAVHCDDVRGQEEVVVKPFEGILSGIPGLSGAAVLGEGDVVTILDVATL
binds: [6] | [7] | [8] | [9]
